Results of single-concentration screens

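Whole-parasite assay of Trypanosoma brucei over 72 hours; the read-out is not stated. Tested at 30 µM. Higher reads as stronger inhibition (inferred: compounds with an IC50 in retests scored well above the rest). Values scatter widely below zero; nearly all retest evidence comes from the higher of the two concentrations used. Of about 64,000 compounds tested this way, about 940 (1.5%) reached 50% or more in at least one test.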

Results are given as percent effect. How 0% and 100% were set is not recorded. Most values in the screen are low, and negative values occur. This is an unselected part of the compounds tested.

* CCOC(=O)C1(O)CCN(C(=O)Nc2cccc(CC)c2)CC1 : 10.27%
* CCN1Cc2ccccc2CC2(CCN(CC(=O)O)CC2)C1=O.O=C(O)C(F)(F)F : -36.2%
* O=C1CCCCN1c1cccc(CNC2CCCC2)c1 : -20.16%
* CCCC(C#N)NC(=O)CCCOc1cccc(C(C)=O)c1 (stereo not drawn) : -26.87%
* CN(CC1CCCN(S(C)(=O)=O)C1)c1cnn(C)c1 (stereo not drawn) : -0.6538%
* CCc1cc(C(=O)N[C@H]2CN(CCS(C)(=O)=O)C[C@@H]2C2CC2)[nH]n1 : -6.869%
* Cc1ncnc2c1CCN(C(=O)Cc1cccc(F)c1)CC2 : -60.74%
* CCc1nc(C2CCCN2CC(=O)NCCc2ccsc2)no1 (stereo not drawn) : 4.143%
* c1ccc(COCC2CNCc3nccn3C2)nc1 (stereo not drawn) : -37.88%
* CN1CCCC(c2cccc(Cc3ccccc3Cl)n2)C1 (stereo not drawn) : 24.95%
* O=C(c1ccc(Cn2cc(Br)cn2)cc1)N1CCCC1 : -29.34%
* [H][C@@]12CCN(Cc3cccs3)C[C@]1([H])[C@H](c1nc(C)no1)CCO2 : -10.19%
* O=C(c1nc(N2CCCC2)ncc1Cl)N1CCN(Cc2ccsc2)CC1 : -131.7%
* O=C(NCCN1CCOCC1)N(Cc1ccoc1)C1CCCCC1 : -41.8%
* Cc1nc(CN2CCOC(CN(C)c3cccnn3)C2)cs1 (stereo not drawn) : 3.242%
* Cl.Cn1nc(C2CCCN(Cc3cc(F)ccc3F)C2)c2nccnc21 (stereo not drawn) : 20.63%
* COc1cccc(CNC(=O)Nc2ccc3[nH]nnc3c2)c1OC : -49.75%
* CCOC(=O)[C@H]1[C@@H](O)C(=O)N(C)C12CCN(C(=O)CC(C)C)CC2 : -11.13%
* Cc1noc(CN(C)c2ccccc2)n1 : -18.05%
* O=C(NC1(c2nnn(CCO)n2)CCCC1)c1ccccc1 : 35.46%
* COc1cc(C(=O)NCC2(N(C)C)CCN(C)CC2)c2ccccc2n1 : -18.58%
* Cc1nn(C)c2nc(N3CCC(C(O)c4ccccn4)CC3)sc12 (stereo not drawn) : 14.14%
* COCCCNC(=O)CN1CCCC1c1c(C)nn(C)c1Cl (stereo not drawn) : 11.59%
* COc1ccc(C2=NOC(CO)C2)cc1 (stereo not drawn) : -12.82%
* COc1ccc(C[C@H]2CN(C(=O)C3CC3)CC[C@H]2OC)cc1 : 1.552%
* CCc1nc(CN2CCCC(NCc3nc4cccnc4[nH]3)C2)no1 (stereo not drawn) : -28.94%
* Cn1cnc2cc(CCC(=O)Nc3n[nH]c(C4CCCO4)n3)ccc21 (stereo not drawn) : 10.71%
* CCOCCC(=O)N(C)c1ccc(F)c(Cl)c1 : -46.56%
* CCc1cc(NCCCN(C)C2CCCC2)ncn1 : -46.04%
* CCn1c(CN2CCCC(Cn3cncn3)C2)nc2c(F)cccc21 (stereo not drawn) : -24.74%
* N#Cc1ccc(CN2CCc3sccc3C2)c(F)c1 : -0.8316%
* Cc1cc(N2CCC(N(C)C(=O)c3ccccc3F)CC2)nc(C)n1 : -12.35%
* [H][C@@]12CS(=O)(=O)C[C@]1([H])N(C(=O)COc1ccccc1)CCN2CC=C(C)C : -5.428%
* CN1C(=O)CC(c2cnn(C)c2)C12CCN(C(=O)c1ccnnc1)CC2 (stereo not drawn) : 5.597%
* CCc1cnc(CCNC(=O)N2CCCC(c3ncc[nH]3)C2)s1 (stereo not drawn) : -21.79%
* COc1cccc2c1OCC(C(=O)N1CCN(S(=O)(=O)N(C)C)CC1)C2 (stereo not drawn) : -32.89%
* Cc1cc(S(=O)(=O)NC(=O)CCc2cccnc2)c(C)s1 : 6.562%
* CCNC(=O)Cc1ccc(NC(=O)NC(CC)c2ccncc2)cc1 (stereo not drawn) : -21.1%
* CCc1noc(CNc2cc3c(cc2Cl)OCCCO3)n1 : -37.7%
* Cn1ccnc(Sc2cccc(C#N)c2)c1=O : 28.97%
* Fc1cccnc1N1CCC(NCc2cccc3cn[nH]c23)C1 (stereo not drawn) : 9.609%
* Cc1cccc(C(=O)N2CCC3(CC2)CC(c2cnn(C)c2)CO3)c1 (stereo not drawn) : -1273%
* Cc1oc(C)c(C(=O)N2CCCN(Cc3cscn3)CC2)c1C : -23.97%
* Cc1ccc2oc(C(=O)N3CCCC(n4cccn4)C3)cc2n1 (stereo not drawn) : -7.091%
* CCC(C)Oc1ccc(CNCCc2c[nH]cn2)cc1Cl (stereo not drawn) : -7.702%

For reference, 6 entries once more:

structure,Percent Effect
COCCCNC(=O)CN1CCCC1c1c(C)nn(C)c1Cl (stereo not drawn),11.59
COc1cccc(CNC(=O)Nc2ccc3[nH]nnc3c2)c1OC,-49.75
CCOC(=O)C1(O)CCN(C(=O)Nc2cccc(CC)c2)CC1,10.27
Fc1cccnc1N1CCC(NCc2cccc3cn[nH]c23)C1 (stereo not drawn),9.609
Cc1nc(CN2CCOC(CN(C)c3cccnn3)C2)cs1 (stereo not drawn),3.242
Cc1ccc2oc(C(=O)N3CCCC(n4cccn4)C3)cc2n1 (stereo not drawn),-7.091

From ChEMBL document CHEMBL3988442, “University of Dundee, Small-Polar-MMV Screening Library” (2021).